These are yes or no findings as the source states them, for the method shown. Tags and fused reporters may be left off the sequences shown.
Molecular target: s-Yju3p, soluble variant (L175S) of the monoglyceride lipase Yju3p from Saccharomyces cerevisiae (S. cerevisiae)
Test: SEC; Superdex 200 in buffer A (20 mM Tris-HCl pH 8.0, 100 mM NaCl, 5% glycerol, 1 mM EDTA, 1 mM DTT), flow rate 2 ml/min; after Ni-NTA; both purified

B1: s-Yju3p, soluble variant (L175S) of the monoglyceride lipase Yju3p from Saccharomyces cerevisiae (enzyme)
chain: APYPYKVQTTVPELQYENFDGAKFGYMFWPVQNGTNEVRGRVLLIHGFGEYTKIQFRLMDHLSLNGYESFTFDQRGAGVTSPGRSKGVTDEYHVFNDLEHFVEKNLSECKAKGIPLFMWGHSMGGGICLNYACQGKHKNEISGYIGSGPLIILHPHTMYNKPTQIIAPLLAKFSPRVRIDTGLDLKGITSDKAYRAFLGSDPMSVPLYGSFRQIHDFMQRGAKLYKNENNYIQKNFAKDKPVIIMHGQDDTINDPKGSEKFIRDCPSADKELKLYPGARHSIFSLETDKVFNTVFNDMKQWLDKHTTTEAKP
B1 was tested. Which binding did it give?
Its binding is “no binding”.
